Binding data for 2 substances are collected here from publication PMC7560020.

Chains of the proteins cited; added tags and fusions are not shown.
UniProt P27694: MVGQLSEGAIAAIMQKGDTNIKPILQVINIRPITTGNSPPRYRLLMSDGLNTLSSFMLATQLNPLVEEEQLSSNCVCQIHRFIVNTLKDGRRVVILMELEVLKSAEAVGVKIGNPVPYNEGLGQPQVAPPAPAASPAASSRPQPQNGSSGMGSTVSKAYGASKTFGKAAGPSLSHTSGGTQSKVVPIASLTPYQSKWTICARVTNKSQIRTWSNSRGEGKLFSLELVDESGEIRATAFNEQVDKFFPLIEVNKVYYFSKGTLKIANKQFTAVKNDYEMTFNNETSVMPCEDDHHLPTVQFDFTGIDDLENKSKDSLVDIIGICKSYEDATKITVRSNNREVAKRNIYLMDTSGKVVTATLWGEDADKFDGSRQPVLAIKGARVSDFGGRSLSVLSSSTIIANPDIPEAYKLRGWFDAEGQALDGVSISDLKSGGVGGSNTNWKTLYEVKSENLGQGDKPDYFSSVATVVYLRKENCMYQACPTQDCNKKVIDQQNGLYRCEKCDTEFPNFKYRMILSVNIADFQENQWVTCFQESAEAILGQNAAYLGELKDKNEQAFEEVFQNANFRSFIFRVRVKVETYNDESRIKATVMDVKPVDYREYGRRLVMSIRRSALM
UniProt P15927: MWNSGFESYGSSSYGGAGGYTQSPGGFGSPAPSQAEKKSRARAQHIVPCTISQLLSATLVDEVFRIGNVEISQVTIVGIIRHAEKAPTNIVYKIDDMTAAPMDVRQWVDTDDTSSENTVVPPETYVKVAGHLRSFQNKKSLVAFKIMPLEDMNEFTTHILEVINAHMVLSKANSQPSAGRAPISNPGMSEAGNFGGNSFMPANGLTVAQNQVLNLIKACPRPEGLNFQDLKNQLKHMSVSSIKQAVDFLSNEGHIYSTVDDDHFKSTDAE

Results are given in words; binding and its absence hold for the method and conditions named. In cells and extracts the contact can be indirect. Some binding calls cover weakened binding; strength is not graded here.

The target of the test is T1, Enhancer of mRNA decapping protein 4 (human (in human cervical cancer cell lines HeLa or SiHa)) (UniProt Q6P2E9).
T1 sequence: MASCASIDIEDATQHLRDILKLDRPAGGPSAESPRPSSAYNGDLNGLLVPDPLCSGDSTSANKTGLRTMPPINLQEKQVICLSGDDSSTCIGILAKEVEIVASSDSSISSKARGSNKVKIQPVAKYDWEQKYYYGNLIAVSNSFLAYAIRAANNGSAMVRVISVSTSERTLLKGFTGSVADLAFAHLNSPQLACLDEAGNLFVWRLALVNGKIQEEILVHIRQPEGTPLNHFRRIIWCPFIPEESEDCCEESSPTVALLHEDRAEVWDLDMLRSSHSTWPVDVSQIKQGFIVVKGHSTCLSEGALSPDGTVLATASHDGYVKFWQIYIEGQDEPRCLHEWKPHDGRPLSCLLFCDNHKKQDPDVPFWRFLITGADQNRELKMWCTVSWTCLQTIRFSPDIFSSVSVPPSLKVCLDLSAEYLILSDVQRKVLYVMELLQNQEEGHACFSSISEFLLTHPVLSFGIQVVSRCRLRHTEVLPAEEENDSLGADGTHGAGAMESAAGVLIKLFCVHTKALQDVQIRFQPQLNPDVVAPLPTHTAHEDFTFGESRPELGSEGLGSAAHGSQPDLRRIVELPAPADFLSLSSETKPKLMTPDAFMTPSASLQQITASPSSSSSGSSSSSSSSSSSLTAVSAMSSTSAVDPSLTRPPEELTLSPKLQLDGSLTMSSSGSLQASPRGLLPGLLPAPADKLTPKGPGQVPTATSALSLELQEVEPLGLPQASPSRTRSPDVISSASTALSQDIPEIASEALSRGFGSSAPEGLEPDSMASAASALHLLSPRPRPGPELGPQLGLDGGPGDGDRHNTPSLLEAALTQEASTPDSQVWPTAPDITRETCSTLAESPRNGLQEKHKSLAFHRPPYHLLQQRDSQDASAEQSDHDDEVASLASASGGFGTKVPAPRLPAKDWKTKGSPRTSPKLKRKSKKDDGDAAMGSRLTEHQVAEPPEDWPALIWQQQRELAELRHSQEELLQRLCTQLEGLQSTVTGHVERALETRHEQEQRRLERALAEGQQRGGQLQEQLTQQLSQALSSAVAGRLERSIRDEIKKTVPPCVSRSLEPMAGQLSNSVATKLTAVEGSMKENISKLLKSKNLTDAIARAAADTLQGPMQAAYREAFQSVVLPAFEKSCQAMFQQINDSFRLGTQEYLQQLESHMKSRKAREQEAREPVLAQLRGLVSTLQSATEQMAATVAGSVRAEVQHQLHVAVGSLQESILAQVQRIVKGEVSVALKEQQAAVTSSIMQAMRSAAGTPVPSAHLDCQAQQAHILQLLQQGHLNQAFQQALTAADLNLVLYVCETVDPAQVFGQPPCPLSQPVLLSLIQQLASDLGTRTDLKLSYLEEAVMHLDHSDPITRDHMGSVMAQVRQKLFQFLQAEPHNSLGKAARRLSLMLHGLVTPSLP
In words: co-IP; cell lysate incubated with purified antibody against target protein overnight at 4 °C, Protein G-conjugated or IgG-conjugated magnetic beads 3 h, washed with IP buffer and PBS, eluate analysed by Western blot; which protein was precipitated not given.

Regarding “Replication protein A subunit RPA1 (from UniProt P27694 1-616)”, the binding result is “binds”. The result for “Replication protein A subunit RPA2 (from UniProt P15927 1-270)” reads “binds”.
